From paper PMC7096246 (Journal of pharmaceutical sciences, 2020)
Values after ≈ are worked out from the molar mass of the structure shown.

What was measured:
[1] = Saturation solubility in 50% FBS/PBS; type: physicochemical
[2] = Water solubility measured in the current study; type: physicochemical

CC(=O)O[C@H]1C(=O)[C@@]2(C)[C@H]([C@H](OC(=O)c3ccccc3)[C@]3(O)C[C@H](OC(=O)[C@H](O)[C@@H](NC(=O)c4ccccc4)c4ccccc4)C(C)=C1C3(C)C)[C@]1(OC(C)=O)CO[C@@H]1C[C@@H]2O [PTX, paclitaxel]
solubility at 24 h [1]: 0.0412 ± 0.0039 mg/mL (≈ 48.2 µM) | solubility at 24 h [2]: 0.0033 ± 0.0003 mg/mL (≈ 3.86 µM)
